The series can be described thus: Odor description (olfactory evaluation).

Data on 4 molecules can be found in patent publication US9120994B2, “Terpene alcohols for use in fragrance compositions and perfumed products” (Givaudan S.A., priority 2011, dated 2015).

`CC(C)=CCC(C)C1CC1(C)CO` (stereo not shown) [Example 2, [1-Methyl-2(5-methylhex-4-en-2yl)cyclopropyl]methanol]: the Odor description result is recorded as “floral rosy, geranium-like, diffusive”.
Next, `CC(C)=CCC(C)/C=C(\C)CO` (stereo not shown) [Compound Ia, 2,4,7-Trimethylocta-2,6-dien-1-ol]: “floral, rose and geranium-like with citrus note”; `CC(C)=CC[C@@H](C)[C@H]1C[C@]1(C)CO` (relative stereo) [Compound Ic, [(1S*,2R*)-1-Methyl-2-[(R*)-5-methylhex-4-en-2-yl]cyclopropyl]methanol]: “floral, rosy, phenoxanol-like, citrus”; `CC(C)=CC[C@H](C)[C@H]1C[C@]1(C)CO` (relative stereo) [Compound Ib, [(1S*,2R*)-1-Methyl-2-[(S*)-5-methylhex-4-en-2-yl]cyclopropyl]methanol]: “floral, rosy, geraniol-like”.
